The source of these data is patent EP1994944A1 (Laboratorios SALVAT, S.A., priority 2007, dated 2008).

The nature of this series: general procedure: Fmoc solid-phase peptide synthesis; Rink amide resin; N,N'-diisopropylcarbodiimide. As to conditions: whole synthesis, scale 0.36 mmol.

For the substance “2-(2-Amino-3-phenylpropionylamino)-N-{[({carbamoylmethyl-[2-(2,4-dichlorophenyl)ethyl]carbamoyl}methyl)-(3,3-diphenylpropyl)carbamoyl]-methyl}-N-[2-(2,4-dichiorophenyl)ethyl]-3-methylbutyramide”, the isolated mass is 196 mg and the isolated yield entry is on record as “yield 55%”. The “final HPLC purity” value (analytical RP-HPLC, UV 220 nm) is recorded as not below 98% purity.
